Taken from: PubChem BioAssay AID1159578 (Peter MacCallum Cancer Centre, 2015)

- Screen: 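Knock-downs that alter how fast lymphatic endothelial cells migrate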 (primary screen)
- Cells: human lymphatic endothelial cells
- Reagent: siRNA pool against human genes, 40 nM
- Time to read-out: 48 h after transfection
- Read-out: 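Cells stained with dye and imaged after a scratch; covered wound area and nuclei counted, duplicates averaged, migration set against mock wells and turned into a robust z-score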
- Scale: migration robust z-score: higher = faster migration into the scratch; nuclei per well: higher = more cells in the well
- Rule for the call: 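Migration changed when robust z exceeds 2 or falls below -2 and mean nuclei number is at least 3300; otherwise not called changed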
- Meaning of the calls: active = migration changed; inactive = no migration change, or too few cells
Shown is an unselected part of about 18,000 reagents. In the full data, about 1,030 (5.7%) got an active call. 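Inactive calls also include pools with fewer than 3300 nuclei, whose migration was not assessed.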 Raw values vary from plate to plate and are shown uncorrected. Further read-outs or replicates are left out here.

gene | migration robust z-score | migration class with cell-count check | nuclei per well, duplicate mean | outcome
CLASP1 (cytoplasmic linker associated protein 1) | 1.75 | migration z between -2 and 2; enough cells | 5744 | inactive
GCGR (glucagon receptor) | -2.21 | migration z below -2; enough cells | 5710 | active
MLANA (melan-A) | -0.46 | migration z between -2 and 2; enough cells | 5942 | inactive
ASAH1 (N-acylsphingosine amidohydrolase 1) | -2.05 | migration z below -2; enough cells | 3722 | active
TRIM4 (tripartite motif containing 4) | 0.8 | migration z between -2 and 2; enough cells | 5226 | inactive
XRCC5 (X-ray repair cross complementing 5) | 1.01 | migration z between -2 and 2; enough cells | 5649 | inactive
LDAF1 (lipid droplet assembly factor 1) | 0.98 | migration z between -2 and 2; enough cells | 5244 | inactive
STS (steroid sulfatase) | -0.72 | migration z between -2 and 2; enough cells | 5070 | inactive
PPL (periplakin) | -0.36 | migration z between -2 and 2; enough cells | 5614 | inactive
DHX9 (DExH-box helicase 9) | 0.96 | migration z between -2 and 2; enough cells | 4858 | inactive
MAP3K12 (mitogen-activated protein kinase kinase kinase 12) | -0.93 | migration z between -2 and 2; enough cells | 3978 | inactive
CRB3 (crumbs cell polarity complex component 3) | -0.39 | migration z between -2 and 2; enough cells | 5148 | inactive
TAP1 (transporter 1, ATP binding cassette subfamily B member) | 0.08 | migration z between -2 and 2; enough cells | 6082 | inactive

A stretch of the results above, as a working copy:
gene | migration robust z-score | migration class with cell-count check | nuclei per well, duplicate mean | outcome
CLASP1 (cytoplasmic linker associated protein 1) | 1.75 | migration z between -2 and 2; enough cells | 5744 | inactive
GCGR (glucagon receptor) | -2.21 | migration z below -2; enough cells | 5710 | active
MLANA (melan-A) | -0.46 | migration z between -2 and 2; enough cells | 5942 | inactive
ASAH1 (N-acylsphingosine amidohydrolase 1) | -2.05 | migration z below -2; enough cells | 3722 | active
TRIM4 (tripartite motif containing 4) | 0.8 | migration z between -2 and 2; enough cells | 5226 | inactive
XRCC5 (X-ray repair cross complementing 5) | 1.01 | migration z between -2 and 2; enough cells | 5649 | inactive

More results follow:
gene | migration robust z-score | migration class with cell-count check | nuclei per well, duplicate mean | outcome
NMB (neuromedin B) | -1.38 | migration z between -2 and 2; enough cells | 5912 | inactive
GALNT9 (polypeptide N-acetylgalactosaminyltransferase 9) | 0.19 | migration z between -2 and 2; enough cells | 6572 | inactive
CCL4L1 (C-C motif chemokine ligand 4 like 1) | -0.67 | migration z between -2 and 2; enough cells | 5032 | inactive
CDY1 (chromodomain Y-linked 1) | -0.8 | migration z between -2 and 2; enough cells | 4746 | inactive
RRP1 (ribosomal RNA processing 1) | -3.1 | migration z below -2; enough cells | 5628 | active
RRAD | -7.13 | under 3300 nuclei; migration not judged | 1678 | inactive
RBM33 (RNA binding motif protein 33) | -0.68 | migration z between -2 and 2; enough cells | 5082 | inactive
B3GALNT2 (beta-1,3-N-acetylgalactosaminyltransferase 2) | -1.43 | migration z between -2 and 2; enough cells | 7272 | inactive
RAB4A (RAB4A, member RAS oncogene family) | 0.94 | migration z between -2 and 2; enough cells | 6666 | inactive
TENT5A (terminal nucleotidyltransferase 5A) | 0.68 | migration z between -2 and 2; enough cells | 5889 | inactive
ASXL2 (ASXL transcriptional regulator 2) | 1.37 | migration z between -2 and 2; enough cells | 6255 | inactive
THBS1 (thrombospondin 1) | -0.74 | migration z between -2 and 2; enough cells | 6468 | inactive
TRIM22 (tripartite motif containing 22) | -0.13 | migration z between -2 and 2; enough cells | 5492 | inactive
FAT1 (FAT atypical cadherin 1) | -0.32 | migration z between -2 and 2; enough cells | 6149 | inactive
MMP9 (matrix metallopeptidase 9) | 1.14 | migration z between -2 and 2; enough cells | 5242 | inactive
SLC35F3 | -0.12 | migration z between -2 and 2; enough cells | 5222 | inactive
MYCT1 (MYC target 1) | 0.86 | migration z between -2 and 2; enough cells | 4522 | inactive
PSMA8 (proteasome 20S subunit alpha 8) | -0.86 | migration z between -2 and 2; enough cells | 5632 | inactive
FANCB (FA complementation group B) | 0.86 | migration z between -2 and 2; enough cells | 5490 | inactive
SDR42E1 (short chain dehydrogenase/reductase family 42E, member 1) | 1.04 | migration z between -2 and 2; enough cells | 6140 | inactive
ZNF321P (zinc finger protein 321, pseudogene) | -1.69 | migration z between -2 and 2; enough cells | 4056 | inactive
VGLL1 (vestigial like family member 1) | 0.14 | migration z between -2 and 2; enough cells | 4694 | inactive
MATN2 (matrilin 2) | -0.3 | migration z between -2 and 2; enough cells | 4548 | inactive
GDF3 (growth differentiation factor 3) | -2.47 | migration z below -2; enough cells | 5054 | active
BTAF1 (B-TFIID TATA-box binding protein associated factor 1) | -0.3 | migration z between -2 and 2; enough cells | 6222 | inactive
CEP126 (centrosomal protein 126) | -0.61 | migration z between -2 and 2; enough cells | 5832 | inactive
